The target of experiment [1] is STING-Myc (UniProt Q86WV6). In words: co-IP; 293T cells cotransfected with TRIM29, RNF5 or TRIM30a and STING with varying doses of UFL1; co-immunoprecipitation, immunoblot. Background: In western blotting, separated proteins are transferred to a membrane and probed.
The target in experiment [2] is T1, STING, endogenous in mouse macrophages (mouse (endogenous in peritoneal macrophages and BMDMs)) (UniProt Q3TBT3).
T1 sequence: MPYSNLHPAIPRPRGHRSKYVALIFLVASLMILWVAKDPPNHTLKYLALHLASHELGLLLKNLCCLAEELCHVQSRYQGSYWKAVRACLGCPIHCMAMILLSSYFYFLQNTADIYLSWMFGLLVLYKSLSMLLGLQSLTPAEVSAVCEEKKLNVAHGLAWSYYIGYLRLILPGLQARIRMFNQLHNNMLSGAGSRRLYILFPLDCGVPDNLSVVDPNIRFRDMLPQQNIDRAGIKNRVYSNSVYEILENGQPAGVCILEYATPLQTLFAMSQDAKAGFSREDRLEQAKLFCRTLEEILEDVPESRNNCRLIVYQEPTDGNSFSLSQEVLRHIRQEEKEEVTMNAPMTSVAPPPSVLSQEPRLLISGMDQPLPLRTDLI
In words: co-IP; endogenous proteins in mouse PMs and BMDMs, unstimulated or infected with HSV-1 for the indicated times; immunoprecipitation, immunoblot.

Protein sequences, listed by entry. Tags and fused reporters are not part of them.
UniProt Q86WV6: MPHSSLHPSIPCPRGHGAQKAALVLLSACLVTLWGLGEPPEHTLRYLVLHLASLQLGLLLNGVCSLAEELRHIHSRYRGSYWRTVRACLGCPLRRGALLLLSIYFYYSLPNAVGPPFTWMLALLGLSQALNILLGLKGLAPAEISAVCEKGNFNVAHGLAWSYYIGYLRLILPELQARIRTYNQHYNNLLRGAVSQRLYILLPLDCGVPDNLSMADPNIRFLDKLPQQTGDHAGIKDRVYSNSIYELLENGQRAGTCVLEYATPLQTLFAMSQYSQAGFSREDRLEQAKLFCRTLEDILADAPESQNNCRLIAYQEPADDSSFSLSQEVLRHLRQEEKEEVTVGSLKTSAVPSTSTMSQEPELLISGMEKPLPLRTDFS

These are yes or no findings as the source states them, for the method shown. In cells and extracts the contact can be indirect. Some binding calls cover weakened binding; strength is not graded here. For some of these results: Where a sequence is shown, tags or fusion partners need not be part of it.

B1: TRIM29-Flag (tripartite motif protein 29) (enzyme, UniProt Q14134 1-588)
chain: MEAADASRSNGSSPEARDARSPSGPSGSLENGTKADGKDAKTTNGHGGEAAEGKSLGSALKPGEGRSALFAGNEWRRPIIQFVESGDDKNSNYFSMDSMEGKRSPYAGLQLGAAKKPPVTFAEKGELRKSIFSESRKPTVSIMEPGETRRNSYPRADTGLFSRSKSGSEEVLCDSCIGNKQKAVKSCLVCQASFCELHLKPHLEGAAFRDHQLLEPIRDFEARKCPVHGKTMELFCQTDQTCICYLCMFQEHKNHSTVTVEEAKAEKETELSLQKEQLQLKIIEIEDEAEKWQKEKDRIKSFTTNEKAILEQNFRDLVRDLEKQKEEVRAALEQREQDAVDQVKVIMDALDERAKVLHEDKQTREQLHSISDSVLFLQEFGALMSNYSLPPPLPTYHVLLEGEGLGQSLGNFKDDLLNVCMRHVEKMCKADLSRNFIERNHMENGGDHRYVNNYTNSFGGEWSAPDTMKRYSMYLTPKGGVRTSYQPSSPGRFTKETTQKNFNNLYGTKGNYTSRVWEYSSSIQNSDNDLPVVQGSSSFSLKGYPSLMRSQSPKAQPQTWKSGKQTMLSHYRPFYVNKGNGIGSNEAP
Turning to B1, the binding result in experiment [1] is “binds”.

B2: TRIM29, endogenous in mouse BMDMs (enzyme, UniProt Q8R2Q0 1-587)
chain: MEGADACRSNGASPEARDTRSPPGPSGSLENGTKADSKDTKTTNGHSGEVTEGKTLGSALKSGEGKSGLFSSNEWRRPIIQFVESVDDKGSSYFSMDSAEGRRSPYAGLQLGASKKPPVTFAEKGELRKSIFSEPRKPTVTIVEPGEVRRNSYPRADSSLLARAKSGSEEVLCDSCIGNKQKAVKSCLVCQASFCELHLKPHLEGAAFRDHQLLEPIRDFEARKCPLHGKTMELFCQTDQTCICYLCMFQEHKNHSTVTVEEAKAEKETELSLQKEQLQLKIIEIEDDVEKWQKEKDRIKSFTTNEKAILEQNFRDLVRELEKQKEEVRAALEQREQDAVDQVKVIVDALDERAKVLHEDKQTREQLHNISDSVLFLQEFGALMSNYSLPPPLPTYHVLLEGEGLGQSLGNCKDDLLNVCMRHVEKMCKADLSRNFIERNHMENGGDHRYMNSYTSSYGNEWSTPDTMKRYSMYLTPKGGGRTSYQPSSPSRLSKETNQKNFNNLYGTKGNYTSRVWEYTSTVQNSEDMPTVQGNSSFSLKGFPSLLRSQVPKAQPQTWKSGKQTLLSHYRPFYVNKGSGIGSNEAP
As for B2, the binding entry in experiment [2] was “binds”.

B3: UFL1, endogenous in mouse macrophages (enzyme, UniProt Q8CCJ3 1-793)
chain: MADAWEEIRRLAADFQRAQFAESTQRLSERNCIEIVNKLISQKQLEVVHTLDGKEYITPAQISKEMRDELHVRGGRVNIVDLQQVINVDLTHIESRVSDIIKSEKHVQMVLGQLIDENYLDQLSEEVNDKLQESGQVTVSELCKAYDLPGDFLTQALTQRLGRIINGHLDLDNRGVIFTEAFVARHKARIRGLFSAITRPTPVNSLVSKYGFQEQLLYSVLEDLVSTGRLRGTVVGGRQDKAVFVPDIYSRTQSTWVDSFFRQNGYLEFDALSRLGIPDAVNYIKKRYKNTQLLFLKATCVGQGLVDQVEASVEEAISSGTWVDISPLLPSSLSVEDAAMLLQQVMRPFGKLASAIVFSDTVVVSEKFITDCTGLFSERMHQKAEKEMKNNPVHLITEEDLKQISILESVNTSKKDKKDERRKKATEGSGSVRGGGGGNAREYKIKKTKKKGRKDEDSDDESQSSHGGKKKPDITFMFQDEIEDCLRKHIQDAPEEFISELAEYLIKPLNKMYLEVVRSVFMSSTSASGTGRKRTIKDLQEEVSNLYNNIRLFEKGMKYFADDTQTALTKHLLKTVCTDITNLMFNFLASDFLMAVEEPAAITSDIRKKILSKLTEETKVALTKLHNSLNEKSIEDFLSCLDSATEACDIMVKKGDKKRERQILFQHRQALCEQLKVTEDPALILHLTAVLLFQLSTHSMLHAPGRCVPQIIAFLHSKIPEDQHTLLVKYQGLVVKQLVSQNKKTGQGEDPSSDELDKEQHDVTNATRKELQELSLSIKDLVLKSRKSSVTEE
As to B3, in experiment [2], the binding result is listed as “binds”.

B4: TRIM30a (tripartite motif protein 30a) (enzyme, UniProt P15533 1-496)
chain: MASSVLEMIKEEVTCPICLELLKEPVSADCNHSFCRACITLNYESNRNTDGKGNCPVCRVPYPFGNLRPNLHVANIVERLKGFKSIPEEEQKVNICAQHGEKLRLFCRKDMMVICWLCERSQEHRGHQTALIEEVDQEYKEKLQGALWKLMKKAKICDEWQDDLQLQRVDWENQIQINVENVQRQFKGLRDLLDSKENEELQKLKKEKKEVMEKLEESENELEDQTELVRDLISDVEHHLELSTLEMLQGANCVLRRSQSLSLQQPQTVPQKRKRTFQAPDLKGMLQVYQGLMDIQQYWVHMTLHARNNAVIAINKEKRQIQYRSYNTVPVSEIYHLGVLGYPALSSGKHYWEVDISRSDAWLLGLNDGKCAQPQLHSKEEMGIKKNLHSQIKQNVLFQPKCGYWVIGMKNPSVYKAFDECSITHNSSILVISLPDRPSRVGVFLDRKAGTLSFYDVSNCGALIYRFYDPAFPVEVYPYFNPMKCSEPMTICGPPS
With B4, in experiment [1], the binding result is reported as “binds”.

The values are drawn from article PMC9883236.
